This is an account of results in publication PMC10978872.

Chains of the proteins cited; added tags and fusions are not shown. Lines headed by an entry give the natural chain unless they say otherwise; changes in a name come on top.
UniProt P18334: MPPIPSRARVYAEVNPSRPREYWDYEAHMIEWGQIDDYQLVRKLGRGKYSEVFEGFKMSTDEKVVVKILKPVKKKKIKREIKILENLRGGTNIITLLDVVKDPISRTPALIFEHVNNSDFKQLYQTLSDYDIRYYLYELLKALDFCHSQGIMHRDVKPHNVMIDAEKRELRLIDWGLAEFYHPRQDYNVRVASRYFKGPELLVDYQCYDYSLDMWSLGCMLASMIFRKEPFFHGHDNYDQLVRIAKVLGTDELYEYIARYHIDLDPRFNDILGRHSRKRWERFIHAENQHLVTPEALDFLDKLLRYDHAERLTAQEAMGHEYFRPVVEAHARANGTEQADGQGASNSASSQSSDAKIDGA
UniProt O01819: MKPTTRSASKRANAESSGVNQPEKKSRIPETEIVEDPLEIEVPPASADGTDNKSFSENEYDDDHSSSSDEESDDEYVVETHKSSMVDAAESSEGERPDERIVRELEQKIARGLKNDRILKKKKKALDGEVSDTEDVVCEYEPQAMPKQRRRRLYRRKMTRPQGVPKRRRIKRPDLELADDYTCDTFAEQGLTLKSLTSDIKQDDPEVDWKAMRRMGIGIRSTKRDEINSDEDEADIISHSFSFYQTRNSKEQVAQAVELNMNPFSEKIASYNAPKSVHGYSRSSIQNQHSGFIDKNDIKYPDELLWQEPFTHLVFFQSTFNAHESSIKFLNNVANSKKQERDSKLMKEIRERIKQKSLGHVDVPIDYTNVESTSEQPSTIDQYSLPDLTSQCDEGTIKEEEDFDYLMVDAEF

Assay [1] deals with T1, FLAG::PRDE-1 (C. elegans) (UniProt O17828).
T1 sequence: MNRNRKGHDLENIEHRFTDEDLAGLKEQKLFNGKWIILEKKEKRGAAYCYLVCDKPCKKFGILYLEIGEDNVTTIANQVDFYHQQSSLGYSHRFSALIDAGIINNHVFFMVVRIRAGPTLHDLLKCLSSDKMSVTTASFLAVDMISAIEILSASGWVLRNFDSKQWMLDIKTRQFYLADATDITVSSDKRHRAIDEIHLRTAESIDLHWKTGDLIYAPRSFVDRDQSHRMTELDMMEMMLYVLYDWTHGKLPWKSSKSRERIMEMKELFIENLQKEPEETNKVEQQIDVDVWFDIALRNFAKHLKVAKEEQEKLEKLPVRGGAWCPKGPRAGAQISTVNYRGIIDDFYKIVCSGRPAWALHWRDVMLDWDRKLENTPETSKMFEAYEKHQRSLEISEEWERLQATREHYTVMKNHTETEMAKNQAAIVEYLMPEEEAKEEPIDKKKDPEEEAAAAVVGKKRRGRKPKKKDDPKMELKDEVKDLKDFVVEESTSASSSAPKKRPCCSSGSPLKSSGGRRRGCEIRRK
The assay can be described thus: co-IP; extracts of synchronous adult worms incubated with anti-FLAG beads for 2 h at 4 °C; FLAG::PRDE-1 precipitated, GFP::TOFU-4 detected by western blot. A general note: In western blotting, separated proteins are transferred to a membrane and probed.

The next assay deals with GST-KIN-3 (C. elegans) (UniProt P18334). Kind of assay: pull-down; GST fusion proteins incubated with His-tagged proteins and glutathione beads; bound proteins detected by western blot with anti-His antibody; both purified.

No constants are given. Whether binding was seen depends on the method and setting. A result given as binding can be weak or reduced; the word gives no strength. For some of these results: In cells and extracts the contact can be indirect. For some of these results: Sequences can lack the tags named with a protein.

As to “GFP::TOFU-4 (wild type) (from UniProt O01819)”, the binding entry in assay [1] is recorded as “binds”.

Take GFP::TOFU-4(S131A S229A) (C. elegans): the binding result in assay [1] was “no binding”.

As to GFP::TOFU-4(S131D S229D) (C. elegans), in assay [1], the binding result is listed as “binds”.

With His-TOFU-4 (from UniProt O01819), in the assay with GST-KIN-3 (C. elegans), the binding result is on record as “binds”.
